The text below walks through data of publication doi:10.1101/2020.01.17.910125.

Amino acid sequences for entries named in this document (tags omitted).
UniProt P19474: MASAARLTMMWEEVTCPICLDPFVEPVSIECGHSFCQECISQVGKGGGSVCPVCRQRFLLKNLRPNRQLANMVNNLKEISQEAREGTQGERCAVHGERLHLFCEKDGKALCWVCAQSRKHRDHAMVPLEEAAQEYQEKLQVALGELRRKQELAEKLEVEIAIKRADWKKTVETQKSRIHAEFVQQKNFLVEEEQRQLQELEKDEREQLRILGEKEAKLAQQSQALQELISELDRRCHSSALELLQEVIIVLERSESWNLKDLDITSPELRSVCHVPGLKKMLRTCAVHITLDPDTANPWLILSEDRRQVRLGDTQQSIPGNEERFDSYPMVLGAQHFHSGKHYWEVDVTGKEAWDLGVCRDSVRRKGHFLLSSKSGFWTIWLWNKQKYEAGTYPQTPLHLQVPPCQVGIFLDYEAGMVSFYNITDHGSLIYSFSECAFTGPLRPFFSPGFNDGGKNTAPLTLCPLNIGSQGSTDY
UniProt Q15717: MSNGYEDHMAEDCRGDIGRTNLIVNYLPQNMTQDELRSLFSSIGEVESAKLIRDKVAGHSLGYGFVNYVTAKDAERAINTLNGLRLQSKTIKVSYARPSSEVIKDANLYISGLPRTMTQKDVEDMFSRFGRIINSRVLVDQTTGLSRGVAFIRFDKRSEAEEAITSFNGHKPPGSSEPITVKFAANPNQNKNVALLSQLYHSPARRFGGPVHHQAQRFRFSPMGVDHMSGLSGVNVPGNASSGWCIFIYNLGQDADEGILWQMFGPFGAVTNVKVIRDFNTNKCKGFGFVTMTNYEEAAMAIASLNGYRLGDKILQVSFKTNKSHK

These are yes or no findings as the source states them, for the method shown. Binding seen in cells or lysates may run through a third protein. Some binding calls cover weakened binding; strength is not graded here.

The target in the experiment is Trim21 (human (endogenous in HepG2)) (UniProt P19474). Put plainly: proximity ligation.

As to Hur (from UniProt Q15717 1-326), the binding entry is “binds”.
